Results on two molecules are retold here after article PMC3335016, “Analysis of the Nse3/MAGE-Binding Domain of the Nse4/EID Family Proteins” (PLoS ONE, 2012).

Assay [1] has as its target S-tagged wild-type hNSE3/MAGEG1 (human). The assay is described as follows: co-IP; HEK293T co-transfected with S-tagged hNSE3/MAGEG1 and FLAG-NSE4b; lysates (50 mM Tris-HCl pH 7.7, 0.5% NP40, 150 mM NaCl) precipitated with S-protein agarose, 4 h at 4°C; anti-FLAG blot.
For assay [2], the target named is S-tagged hNSE3/MAGEG1(L267A) (human). Described as above.

Residue numbers refer to the chain shown, from its start. In names and notes the source's numbering stands. No constants are given. Whether binding was seen depends on the method and setting. Binding seen in cells or lysates may run through a third protein. A result given as binding can be weak or reduced; the word gives no strength. Sequences can lack the tags named with a protein.

B1: FLAG-tagged wild-type NSE4b/EID3 (protein, UniProt Q8N140 1-333)
chain: MKMDVSVRAAGCSDDLSSGEADVDPKLLELTADEEKCRSIRRQYRQLMYCVRQNREDIVSSANNSLTEALEEANVLFDGVSRTREAALDARFLVMASDLGKEKAKQLNSDMNFFNQLAFCDFLFLFVGLNWMEGDPDKLSDCDDSIALSFWKAIEKEATSWMVKAETFHFVFGSFKLERSAPKPRLEHQKKVRKMEENGNMPTKLQKLDLSSYPEATEKNVERILGLLQTYFRKYPDTPVSYFEFVIDPNSFSRTVENIFYVSFIVRDGFARIRLDEDRLPILEPMNVNQMGEGNDSSCHGRKQGVISLTLQEWKNIVAAFEISEAMITYSSY
For B1, the binding entry in assay [1] and in assay [2] was “binds” in each case.

B2: FLAG-tagged NSE4b(F114A/F124A) (protein, UniProt Q8N140 1-333)
chain: B1 chain with F114A, F124A
B2: the binding entry in assay [1] is “binds”; in assay [2], “no binding”.
